At least one read-out could not be matched to a standard name with certainty.
Tests used:
[1] = system: collagène fibreux insoluble; assay: Increase of the resistance of collagen to collagenase (agarose gel, diameter of hydrolysis zones); format: biochemical; conditions: collagénase pancréatique 10 mg/ml (3800 U/ml), 15 h at 37°C, Tris pH 8,8
Description: * Accroissement de la résistance du collagène aux effets de la collagénase : - Mise en évidence : On répartit dans quatre boîtes de Pétri de 8 cm de diamètre 20 ml d'une solution à 1 % d'agarose dans du tampon Tris pH 8,8, contenant en suspension 20 mg de collagène fibreux insoluble et 0, 0,1, 0,3 et 0,5 ml d'une solution à 5 % de produit à tester selon les boîtes, soient des concentrations de 0, 0,025 %, 0,075 %, 0,125 %. Comme la plupart des produits à tester ne sont pas solubles dans le tampon, on part d'une solution mère dans du diméthylsulfoxyde (DMSO). Cette répartition se fait à 45°C. Après solidification de l'agarose, on perfore 5 puits de 3 mm de diamètre dans le gel grâce à un emporte-pièce. Dans ces 5 puits, on place 50 µl d'une solution de collagénase pancréatique dans du tampon Tris pH 8,8 à une concentration de 10 mg/ml (3800 U/ml). Les boîtes de Pétri sont incubées 15 heures à 37°C, puis le gel est coloré par une solution à 0,25 % d'acide picrique à 0,25 % pendant 3 min, puis une solution de Rouge Sirius à 0,1 % pendant 5 min. L'excès de coloration est éliminé par lavage à l'eau. - Résultats :
On évalue l'action enzymatique en mesurant le diamètre des zones d'hydrolyse du collagène fibreux. Le groupe chlorophylle-chlorophyllide est le plus actif, ce qui suggère que la présence de magnésium dans la structure a une grande importance. * Effet d'inhibition de la collagénase : - Mise en évidence : On répartit dans quatre boîtes de Pétri de 8 cm de diamètre 20 ml d'une solution à 1 % d'agarose dans du tampon Tris pH 8,8, contenant en suspension 20 mg de collagène fibreux insoluble. Cette répartition se fait à 45°C. Après solidification de l'agarose, on perfore 5 puits de 3 mm de diamètre dans le gel grâce à un emporte-pièce. Dans ces 5 puits, on place 25 µl d'une solution de collagénase pancréatique dans du tampon Tris pH 8,8 à des concentrations de : 10 mg/ml (3800 U/ml) et 25 µl d'une solution de la substance à tester dans le même tampon à une concentration de 4 %, 3 %, 2 %, 1 % et 0 %. Comme la plupart des produits à doser ne sont pas solubles dans le tampon, on part d'une solution mère dans du diméthylsulfoxyde. Les boîtes de Pétri sont incubées 15 heures à 37°C, puis le gel est coloré par une solution à 0,25 % d'acide picrique à 0,25 % pendant 3 min, puis une solution de Rouge Sirius à 0,1 % pendant 5 min. L'excès de coloration est éliminé par lavage à l'eau. - Résultats : […]

xanthine oxydase = assay: Antiradical effect, enzymatic method (xanthine / xanthine oxidase / cytochrome c, OD 550 nm); format: biochemical; conditions: 0,5 ml of 0,5 % solution in DMSO à 50 %, 3 ml total; pH 7,5; ratio of the two measured rates

Molecule | Accroissement de la résistance du collagène aux effets de la collagénase ([1]; product in the gel at 0,05 %) [%] | Accroissement de la résistance du collagène aux effets de la collagénase ([1]; product in the gel at 0,075 %) [%] | effet antiradicalaire (méthode enzymatique) (xanthine oxydase) [%]
C=CC1=C(C)c2cc3[nH]c(c(CCC(=O)O)c3C)c3c4nc(cc5[nH]c(cc1n2)c(C)c5CC)C(C)=C4C(=O)C3C(=O)OC (stereo not drawn) [Phaéophorbide a, didéhydrophaéophorbide a] | 8 | 12 | 21
C=CC1=C(C)c2cc3[nH]c(c(CCC(=O)OCC=C(C)CCCC(C)CCCC(C)CCCC(C)C)c3C)c3c4nc(cc5[nH]c(cc1n2)c(C)c5CC)C(C)=C4C(=O)C3C(=O)OC (stereo not drawn) [Phaéophytine a, didéhydrophaéophytine a] | 5 | 9 | 38
didéhydrochlorophylle a | 22 | 28 | 75
didéhydrochlorophyllide a | 34 | 65 | 61
